Consider 39 targets from the supplement of paper PMC12067093, “Discovery and optimisation of a covalent ligand for TRIM25 and its application to targeted protein ubiquitination” (Chemical Science, 2025).

Sequences of proteins named here, by UniProt entry; tags and fusion partners are left off. A change or cut given only in a name is not applied to a line headed by its entry.
UniProt O75717: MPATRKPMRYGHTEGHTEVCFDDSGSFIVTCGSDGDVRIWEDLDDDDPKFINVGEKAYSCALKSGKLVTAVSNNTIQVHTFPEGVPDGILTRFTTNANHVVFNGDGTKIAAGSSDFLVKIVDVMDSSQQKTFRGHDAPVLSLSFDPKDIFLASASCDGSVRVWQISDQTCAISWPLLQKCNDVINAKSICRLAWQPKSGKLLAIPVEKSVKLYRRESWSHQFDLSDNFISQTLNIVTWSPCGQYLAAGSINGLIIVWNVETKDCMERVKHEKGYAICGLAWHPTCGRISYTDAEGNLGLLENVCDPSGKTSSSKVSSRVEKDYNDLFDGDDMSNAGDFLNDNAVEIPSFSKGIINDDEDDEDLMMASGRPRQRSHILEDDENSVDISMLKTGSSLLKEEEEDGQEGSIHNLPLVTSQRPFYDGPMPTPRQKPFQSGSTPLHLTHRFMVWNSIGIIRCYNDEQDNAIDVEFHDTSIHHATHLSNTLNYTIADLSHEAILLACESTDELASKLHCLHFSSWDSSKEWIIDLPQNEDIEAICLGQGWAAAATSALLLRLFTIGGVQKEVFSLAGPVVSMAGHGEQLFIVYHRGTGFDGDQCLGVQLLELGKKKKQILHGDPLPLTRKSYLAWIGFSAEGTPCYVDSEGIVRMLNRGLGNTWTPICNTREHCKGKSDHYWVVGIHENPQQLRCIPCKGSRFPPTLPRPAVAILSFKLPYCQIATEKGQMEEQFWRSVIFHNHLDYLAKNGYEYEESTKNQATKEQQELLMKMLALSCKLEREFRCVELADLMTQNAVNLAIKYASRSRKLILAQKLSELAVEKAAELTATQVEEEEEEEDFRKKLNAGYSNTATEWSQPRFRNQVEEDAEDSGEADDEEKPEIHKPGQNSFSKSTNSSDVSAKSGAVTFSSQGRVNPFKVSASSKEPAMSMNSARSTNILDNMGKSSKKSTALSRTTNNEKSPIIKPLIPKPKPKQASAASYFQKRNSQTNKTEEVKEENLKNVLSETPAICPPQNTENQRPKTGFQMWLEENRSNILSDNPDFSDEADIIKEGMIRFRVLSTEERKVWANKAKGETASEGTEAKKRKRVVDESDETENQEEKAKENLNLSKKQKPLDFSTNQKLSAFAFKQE
UniProt Q9BZH6: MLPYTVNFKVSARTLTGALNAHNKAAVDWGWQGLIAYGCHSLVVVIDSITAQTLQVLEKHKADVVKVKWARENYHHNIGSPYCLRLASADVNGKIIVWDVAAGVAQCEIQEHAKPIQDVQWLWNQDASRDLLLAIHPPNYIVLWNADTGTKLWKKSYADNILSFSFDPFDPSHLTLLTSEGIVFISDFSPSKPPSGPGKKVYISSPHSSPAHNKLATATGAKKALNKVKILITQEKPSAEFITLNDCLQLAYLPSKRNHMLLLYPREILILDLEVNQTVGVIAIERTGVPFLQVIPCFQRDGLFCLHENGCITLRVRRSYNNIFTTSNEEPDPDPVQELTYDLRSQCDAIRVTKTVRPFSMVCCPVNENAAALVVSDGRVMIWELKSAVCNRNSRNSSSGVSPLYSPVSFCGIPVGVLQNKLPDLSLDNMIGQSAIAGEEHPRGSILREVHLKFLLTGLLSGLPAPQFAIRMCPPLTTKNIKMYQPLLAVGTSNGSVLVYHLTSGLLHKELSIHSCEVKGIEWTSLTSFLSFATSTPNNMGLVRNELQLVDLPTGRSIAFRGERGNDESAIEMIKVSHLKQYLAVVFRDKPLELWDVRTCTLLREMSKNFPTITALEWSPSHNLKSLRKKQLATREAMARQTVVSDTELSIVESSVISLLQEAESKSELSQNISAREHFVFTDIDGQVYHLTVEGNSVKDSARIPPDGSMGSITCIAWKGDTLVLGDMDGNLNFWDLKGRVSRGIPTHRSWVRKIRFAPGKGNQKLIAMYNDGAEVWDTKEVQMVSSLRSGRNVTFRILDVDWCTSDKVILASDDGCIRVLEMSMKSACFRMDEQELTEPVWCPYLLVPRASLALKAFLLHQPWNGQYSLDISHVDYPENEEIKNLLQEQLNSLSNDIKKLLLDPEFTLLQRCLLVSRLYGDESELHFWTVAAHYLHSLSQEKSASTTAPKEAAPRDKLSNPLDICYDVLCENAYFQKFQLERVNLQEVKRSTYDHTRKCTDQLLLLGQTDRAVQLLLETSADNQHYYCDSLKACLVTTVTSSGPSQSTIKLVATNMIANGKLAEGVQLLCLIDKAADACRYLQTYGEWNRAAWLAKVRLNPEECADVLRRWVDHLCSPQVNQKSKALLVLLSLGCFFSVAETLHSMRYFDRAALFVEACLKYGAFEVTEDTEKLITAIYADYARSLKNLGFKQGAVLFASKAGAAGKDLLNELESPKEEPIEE
UniProt P98170, whole entry, looked up: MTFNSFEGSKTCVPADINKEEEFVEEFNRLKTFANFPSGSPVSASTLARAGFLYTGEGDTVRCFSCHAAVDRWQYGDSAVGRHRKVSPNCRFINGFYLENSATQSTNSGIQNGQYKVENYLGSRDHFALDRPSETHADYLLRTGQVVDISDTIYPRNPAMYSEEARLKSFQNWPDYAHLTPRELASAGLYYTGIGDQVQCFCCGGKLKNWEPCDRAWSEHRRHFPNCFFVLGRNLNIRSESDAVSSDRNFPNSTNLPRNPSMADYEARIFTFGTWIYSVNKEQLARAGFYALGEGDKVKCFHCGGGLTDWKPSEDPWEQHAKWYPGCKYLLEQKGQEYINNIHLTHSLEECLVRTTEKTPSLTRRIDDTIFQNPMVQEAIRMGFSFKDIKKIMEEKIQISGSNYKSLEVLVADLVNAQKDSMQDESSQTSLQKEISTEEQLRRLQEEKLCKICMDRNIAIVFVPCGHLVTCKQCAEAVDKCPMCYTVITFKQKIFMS
UniProt Q96S55: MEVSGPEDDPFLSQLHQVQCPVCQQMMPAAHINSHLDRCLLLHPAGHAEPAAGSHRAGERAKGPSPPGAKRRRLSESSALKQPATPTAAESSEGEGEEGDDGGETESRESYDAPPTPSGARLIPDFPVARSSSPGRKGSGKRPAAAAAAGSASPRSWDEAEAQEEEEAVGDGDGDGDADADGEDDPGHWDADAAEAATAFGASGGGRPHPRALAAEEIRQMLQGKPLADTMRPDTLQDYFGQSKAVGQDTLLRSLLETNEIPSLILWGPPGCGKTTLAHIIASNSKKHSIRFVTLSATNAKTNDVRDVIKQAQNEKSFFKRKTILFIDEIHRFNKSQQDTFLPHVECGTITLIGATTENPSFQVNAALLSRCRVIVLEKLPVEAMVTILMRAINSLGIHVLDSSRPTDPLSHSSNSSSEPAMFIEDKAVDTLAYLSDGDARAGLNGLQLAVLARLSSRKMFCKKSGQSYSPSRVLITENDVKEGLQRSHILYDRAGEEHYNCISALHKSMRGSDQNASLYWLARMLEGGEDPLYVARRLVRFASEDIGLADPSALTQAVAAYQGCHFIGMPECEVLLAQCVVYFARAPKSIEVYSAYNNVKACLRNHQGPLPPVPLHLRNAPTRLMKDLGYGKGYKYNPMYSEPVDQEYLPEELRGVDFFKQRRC
UniProt Q01831: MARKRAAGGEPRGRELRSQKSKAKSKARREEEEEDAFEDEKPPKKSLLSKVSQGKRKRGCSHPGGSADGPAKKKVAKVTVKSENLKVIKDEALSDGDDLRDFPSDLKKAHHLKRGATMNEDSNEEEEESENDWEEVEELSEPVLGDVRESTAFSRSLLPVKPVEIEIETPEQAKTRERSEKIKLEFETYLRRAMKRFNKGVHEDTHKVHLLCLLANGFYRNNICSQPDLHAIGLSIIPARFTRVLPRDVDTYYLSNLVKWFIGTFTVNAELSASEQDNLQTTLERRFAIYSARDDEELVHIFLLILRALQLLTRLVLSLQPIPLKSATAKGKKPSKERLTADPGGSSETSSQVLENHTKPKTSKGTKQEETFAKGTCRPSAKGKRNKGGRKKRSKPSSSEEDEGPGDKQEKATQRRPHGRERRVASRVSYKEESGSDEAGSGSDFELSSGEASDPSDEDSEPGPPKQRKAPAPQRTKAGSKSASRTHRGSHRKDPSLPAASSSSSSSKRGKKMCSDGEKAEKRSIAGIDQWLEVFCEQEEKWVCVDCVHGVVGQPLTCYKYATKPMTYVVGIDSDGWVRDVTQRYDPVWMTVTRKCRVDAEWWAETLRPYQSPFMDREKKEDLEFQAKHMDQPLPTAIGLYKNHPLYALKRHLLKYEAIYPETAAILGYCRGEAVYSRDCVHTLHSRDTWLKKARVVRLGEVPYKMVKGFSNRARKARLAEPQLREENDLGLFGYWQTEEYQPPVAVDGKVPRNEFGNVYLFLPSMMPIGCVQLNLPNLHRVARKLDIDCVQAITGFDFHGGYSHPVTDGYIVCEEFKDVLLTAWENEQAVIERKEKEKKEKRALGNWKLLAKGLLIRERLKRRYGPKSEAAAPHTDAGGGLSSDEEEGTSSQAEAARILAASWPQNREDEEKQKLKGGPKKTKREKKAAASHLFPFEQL
UniProt Q9NW82: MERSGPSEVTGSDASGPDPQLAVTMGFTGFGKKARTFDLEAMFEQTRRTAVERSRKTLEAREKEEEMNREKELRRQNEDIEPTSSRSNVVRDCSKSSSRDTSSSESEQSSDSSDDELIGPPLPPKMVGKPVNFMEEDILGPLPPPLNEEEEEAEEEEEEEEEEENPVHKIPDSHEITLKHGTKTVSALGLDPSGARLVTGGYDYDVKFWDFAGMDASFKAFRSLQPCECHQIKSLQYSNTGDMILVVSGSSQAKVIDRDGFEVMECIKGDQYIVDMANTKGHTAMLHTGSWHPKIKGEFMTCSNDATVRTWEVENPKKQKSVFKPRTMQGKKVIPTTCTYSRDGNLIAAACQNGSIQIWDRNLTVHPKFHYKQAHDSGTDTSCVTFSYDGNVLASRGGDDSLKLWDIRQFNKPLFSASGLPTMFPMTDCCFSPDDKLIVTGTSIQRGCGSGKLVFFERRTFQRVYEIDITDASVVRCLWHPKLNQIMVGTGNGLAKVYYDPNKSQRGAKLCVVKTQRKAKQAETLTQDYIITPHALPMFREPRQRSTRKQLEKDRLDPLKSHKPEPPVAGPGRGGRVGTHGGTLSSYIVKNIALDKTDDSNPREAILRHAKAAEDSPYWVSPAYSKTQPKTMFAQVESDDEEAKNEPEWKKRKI
UniProt Q96MX6, whole entry, looked up: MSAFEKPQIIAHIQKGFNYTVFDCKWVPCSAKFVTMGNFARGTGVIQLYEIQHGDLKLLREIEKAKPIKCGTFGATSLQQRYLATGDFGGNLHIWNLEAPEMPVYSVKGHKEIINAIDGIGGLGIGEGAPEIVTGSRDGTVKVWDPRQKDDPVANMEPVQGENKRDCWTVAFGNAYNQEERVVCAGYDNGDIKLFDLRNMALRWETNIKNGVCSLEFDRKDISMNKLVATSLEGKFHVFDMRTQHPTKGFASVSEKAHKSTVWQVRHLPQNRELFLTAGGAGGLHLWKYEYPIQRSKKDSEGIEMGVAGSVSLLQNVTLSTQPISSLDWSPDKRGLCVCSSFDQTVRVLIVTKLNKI
UniProt Q96HA8: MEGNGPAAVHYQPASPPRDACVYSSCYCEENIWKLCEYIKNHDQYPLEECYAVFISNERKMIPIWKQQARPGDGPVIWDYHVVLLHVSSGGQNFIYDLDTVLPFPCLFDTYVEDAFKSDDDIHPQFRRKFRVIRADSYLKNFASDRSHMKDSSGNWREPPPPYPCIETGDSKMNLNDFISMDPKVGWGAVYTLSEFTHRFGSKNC
UniProt Q8IWA0: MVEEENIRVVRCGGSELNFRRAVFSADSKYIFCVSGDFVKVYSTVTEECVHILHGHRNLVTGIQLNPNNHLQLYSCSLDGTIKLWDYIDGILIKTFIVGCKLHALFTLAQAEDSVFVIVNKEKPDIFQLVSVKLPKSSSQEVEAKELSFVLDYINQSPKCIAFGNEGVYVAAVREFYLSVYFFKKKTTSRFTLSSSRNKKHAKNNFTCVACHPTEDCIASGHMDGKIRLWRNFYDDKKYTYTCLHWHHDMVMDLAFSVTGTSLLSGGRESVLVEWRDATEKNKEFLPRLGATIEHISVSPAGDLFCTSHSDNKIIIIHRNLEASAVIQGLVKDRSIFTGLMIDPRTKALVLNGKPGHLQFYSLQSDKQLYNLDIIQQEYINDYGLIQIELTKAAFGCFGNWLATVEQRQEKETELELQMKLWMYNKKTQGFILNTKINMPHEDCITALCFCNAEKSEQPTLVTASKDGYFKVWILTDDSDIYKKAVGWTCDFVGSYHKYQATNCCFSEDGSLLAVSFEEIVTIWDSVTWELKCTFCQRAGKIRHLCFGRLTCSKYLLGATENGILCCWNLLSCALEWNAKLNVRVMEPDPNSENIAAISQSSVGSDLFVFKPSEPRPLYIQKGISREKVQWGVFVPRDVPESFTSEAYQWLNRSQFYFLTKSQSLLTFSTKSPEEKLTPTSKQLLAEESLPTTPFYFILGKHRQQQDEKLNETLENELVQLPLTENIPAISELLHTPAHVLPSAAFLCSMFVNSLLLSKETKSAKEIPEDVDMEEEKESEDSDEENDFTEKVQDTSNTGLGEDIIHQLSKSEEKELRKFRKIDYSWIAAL

Compound in this assay: CC1Cc2ccccc2N1C(=O)C1CCCN(C1)C(=O)CCl (mixture of isomers) [TRIM25 ligand 11 (diastereomer mixture)]
The assay is described as follows: probe-labelled cysteine peptide fold change vs DMSO (competition) (log2 fold change); higher = less target engagement (more negative = stronger competition). The settings on record: THP-1, incubation time: 4 h.

The other results are listed elsewhere or left out.
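Further: competitive chemoproteomic profiling in live THP-1 cells with an iodoacetamide desthiobiotin (IA-DTB) probe, comparing probe-labelled peptide intensities in compound-treated cells against DMSO-treated controls.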

Regarding “WDR81_Q562E7_464_SVLCGHVR (UniProt Q562E7)”, the “probe-labelled cysteine peptide fold change” value is 0.0942 (10 µM) and 0.0569 (50 µM).
For “WIPI2_Q9Y4P8_334_NICSLATIQK (UniProt Q9Y4P8)”, in that order: 0.0181 and -0.0227.
For “WDHD1_O75717_170_VWQISDQTCAISWPLLQK (UniProt O75717)”, in that order: -0.129 and 0.0219.
Consider “WDR59_Q6PJI9_888_FVSCPPDPHK (UniProt Q6PJI9)”, for which the “probe-labelled cysteine peptide fold change” value was 0.0371 (10 µM) and 0.194 (50 µM).
For “WDR11_Q9BZH6_83_ENYHHNIGSPYCLR (UniProt Q9BZH6)”, in that order: -0.00383 and 0.0058.
In the same order, the values of “WDR41_Q9HAD4_131_ISCFQSTVK (UniProt Q9HAD4)” are 0.229 and 0.306.
For “WDFY3_Q8IZQ1_908_CSAALADEDHSLHPPLQR (UniProt Q8IZQ1)”, in that order: 0.273 and -0.0942.
For “XIAP_P98170_227_HFPNCFFVLGR (UniProt P98170)”, the “probe-labelled cysteine peptide fold change” value was -0.11 (10 µM) and -0.00778 (50 µM).
For “WDHD1_O75717_1008_NVLSETPAICPPQNTENQRPK (UniProt O75717)”, in that order: 0.0998 and 0.0363.
In the same order, the values of “WDR55_Q9H6Y2_306_VVGSVGQHTGEPVEELALSHCGR (UniProt Q9H6Y2)” are 0.132 and -0.00583.
For “WDR6_Q9NNW5_688_ALGGCTRPHVILR (UniProt Q9NNW5)”, in that order: 0.0217 and 0.052.
Consider “XIAP_P98170_213_NWEPCDR (UniProt P98170)”, for which the “probe-labelled cysteine peptide fold change” value is -0.102 (10 µM) and -0.171 (50 µM).
For “WDR76_Q9H967_66_VYLAPFSLSNYQLDQLMCPK (UniProt Q9H967)”, in that order: -0.196 and -0.0397.
Turning to “WDR44_Q5JSH3_642_ECLCCFQHIDFVTAIAFHPR (UniProt Q5JSH3)”, the “probe-labelled cysteine peptide fold change” value (10 µM) amounted to 0.143 and the “probe-labelled cysteine peptide fold change” value (50 µM) came out at 0.281.
For “WRNIP1_Q96S55_39_CLLLHPAGHAEPAAGSHR (UniProt Q96S55)”, in that order: -0.0546 and 0.231.
Regarding “WASHC5_Q12768_521_TVQLIQALEEVQEFHQLESNLQVCQFLADTRK (UniProt Q12768)”, the “probe-labelled cysteine peptide fold change” value reads like this: (10 µM) 0.205; (50 µM) 0.147.
“WDR45B_Q5MNZ6_63_CNYLALVGGGK (UniProt Q5MNZ6)”: the “probe-labelled cysteine peptide fold change” value reads like this: (10 µM) 0.0226; (50 µM) -0.0611.
With XPC_Q01831_514_MCSDGEK (UniProt Q01831), the “probe-labelled cysteine peptide fold change” value was -0.0167 (10 µM) and -0.0661 (50 µM).
In the case of “WDFY4_Q6ZS81_1763_HHQEEVLQAGLCTEGALLLLEMLK (UniProt Q6ZS81)”, the “probe-labelled cysteine peptide fold change” value (10 µM) was found to be 0.571 and the “probe-labelled cysteine peptide fold change” value (50 µM) is 0.181.
In the same order, the values of “WIZ_O95785_1399_TSHSSTEACCELCGLYFENR (UniProt O95785)” are 0.146 and 0.17.
Take “WDR91_A4D1P6_596_LFDMQQHECAMSWR (UniProt A4D1P6)”: the “probe-labelled cysteine peptide fold change” value (10 µM) is 0.0831 and the “probe-labelled cysteine peptide fold change” value (50 µM) is -0.144.
As to “WDR26_Q9H7D7_493_VQCLWCLSDGK (UniProt Q9H7D7)”, the “probe-labelled cysteine peptide fold change” value came to 0.112 (10 µM) and 0.0721 (50 µM).
Consider “XAB2_Q9HCS7_587_DLFEQALDGCPPK (UniProt Q9HCS7)”, for which the “probe-labelled cysteine peptide fold change” value reads like this: (10 µM) 0.132; (50 µM) 0.0552.
Turning to XIAP_P98170_90_KVSPNCR (UniProt P98170), the “probe-labelled cysteine peptide fold change” value (10 µM) was -0.0478 and the “probe-labelled cysteine peptide fold change” value (50 µM) was -0.0535.
In the case of “WDR70_Q9NW82_302_GEFMTCSNDATVR (UniProt Q9NW82)”, the “probe-labelled cysteine peptide fold change” value is 0.061 (10 µM) and -0.106 (50 µM).
For “XPC_Q01831_224_NNICSQPDLHAIGLSIIPAR (UniProt Q01831)”, in that order: -0.0894 and 0.0467.
With “WDR62_O43379_826_CLLTNGK (UniProt O43379)”, the “probe-labelled cysteine peptide fold change” value was -0.102 (10 µM) and -0.173 (50 µM).
For “XPC_Q01831_60_GCSHPGGSADGPAK (UniProt Q01831)”, in that order: -0.0215 and -0.311.
Take “WDR92_Q96MX6_337+339_GLCVCSSFDQTVR (UniProt Q96MX6)”: the “probe-labelled cysteine peptide fold change” value by setting is: (10 µM) -0.173; (50 µM) 0.0878.
In the same order, the values of “WEE1_P30291_323_RLDGCIYAIK (UniProt P30291)” are -0.0487 and 0.00393.
Regarding “WDR1_O75083_438_CFSIDNPGYEPEVVAVHPGGDTVAIGGVDGNVR (UniProt O75083)”, the “probe-labelled cysteine peptide fold change” value is, setting by setting: (10 µM) -0.0798; (50 µM) -0.203.
For “WDYHV1_Q96HA8_50_NHDQYPLEECYAVFISNER (UniProt Q96HA8)”, in that order: 0.545 and 0.0928.
For “WSB1_Q9Y6I7_262_KLEGHHHDVVACDFSPDGALLATASYDTR (UniProt Q9Y6I7)”, in that order: -0.206 and 0.182.
For “WWP2_O00308_838_SHTCFNR (UniProt O00308)”, in that order: 0.0682 and 0.0454.
As for “WNK1_Q9H4A3_1135_VVECQLETHNR (UniProt Q9H4A3)”, the “probe-labelled cysteine peptide fold change” value (10 µM) was determined as 0.0982 and the “probe-labelled cysteine peptide fold change” value (50 µM) is 0.156.
Take “WDR11_Q9BZH6_473_MCPPLTTK (UniProt Q9BZH6)”: the “probe-labelled cysteine peptide fold change” value reads like this: (10 µM) 0.0855; (50 µM) 0.0522.
Regarding “WDR36_Q8NI36_470_LSCSTWNYQK (UniProt Q8NI36)”, the “probe-labelled cysteine peptide fold change” value (10 µM) was 0.0514 and the “probe-labelled cysteine peptide fold change” value (50 µM) was -0.00465.
“WDR5_P61964_205_IWDTASGQCLK (UniProt P61964)”: the “probe-labelled cysteine peptide fold change” value is -0.0683 (10 µM) and 0.0111 (50 µM).
In the same order, the values of “WDR75_Q8IWA0_12_CGGSELNFR (UniProt Q8IWA0)” are 0.148 and 0.0841.
